Some of the results follow. These are further read-outs of the screen, such as a control signal, another cell line or another target. No call is given for them. The list favours compounds with an active or inconclusive main result. The note in brackets gives the kind of curve behind each potency; many fits are weak.
Assay: qHTS Assay for Lipid Storage Modulators in Drosophila S3 Cells;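 on cell number change: cells counted by Cell Tracker Red CMTPX staining in the red channel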
Conditions: BODIPY lipid droplet fluorescence, 18-24 h; for cell number change: measured here: cell count max response, cells fed with added oleic acid
In short: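 Drosophila S3 cells got compounds at several concentrations plus oleic acid (400 uM solution). Laser-scanning cytometry with 488 nm excitation read lipid droplets at 500-530 nm and cells at 575-640 nm. Percent activity was relative to 20 uM Triacsin C.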

[1] = measured here: lipid fluorescence (Fed channel) AC50, cells fed with added oleic acid
[2] = measured here: cell number channel AC50, cells fed with added oleic acid

SMILES	cell number change	AC50 [1]	AC50 [2]
COc1ccc(Cl)c(Cn2c(NCc3ccccn3)nc3c2c(=O)n(C)c(=O)n3C)c1	9.53%	29100 nM [rising, single point]	–
Cc1cccc(-n2ncc3c(N4CCC(C)CC4)ncnc32)c1	4.4%	–	651 nM [falling, single point]
CCSC1=NCCN1S(=O)(=O)c1ccc2ccccc2c1	-0.246%	–	6510 nM [falling, single point]
CC(C)Oc1ccc(S(=O)(=O)N2CCOCC2)cc1NC(=O)C1COc2ccccc2O1 (configuration not stated)	-20.9%	20600 nM [falling, single point]	–
CCOc1ccc(CCNC(=O)c2ccc(Cl)c(S(=O)(=O)N3CCOCC3)c2)cc1OCC	3.21%	–	–
CCCn1c(N)c(N(CCOC)C(=O)Cc2ccc(S(=O)(=O)N3CCOCC3)s2)c(=O)[nH]c1=O	-18.5%	–	–
CCOc1ccc(C(=O)Nc2cccc(C)n2)cc1	-55.7%	–	7310 nM [falling, partial curve]
Cc1cccc2sc(NNC(=O)c3ccc(S(=O)(=O)N4CCCC(C)C4)cc3)nc12 (configuration not stated)	-19.2%	5.8 nM [falling, full curve, poor fit]	–
Cc1ccc(-c2nn(-c3cccc(F)c3)cc2CN(Cc2nccn2C)C(C)C)o1	-62.3%	10300 nM [falling, partial curve]	11600 nM [falling, partial curve]
Cc1cc(-c2ccc(C)c(S(=O)(=O)NCC3CCN(Cc4ccc(F)cc4)CC3)c2)on1	15.9%	366 nM [rising, partial curve, poor fit]	–
Cc1ccc(S(=O)(=O)N2CCN(C(C)CC(=O)O)CC2)cc1 (configuration not stated)	-138%	29100 nM [falling, partial curve]	29100 nM [falling, partial curve]
Cc1nc(CSc2ccc(Cl)cc2)cc(N2CC(C)OC(C)C2)n1 (configuration not stated)	–	–	1030 nM [rising, full curve, poor fit]
Cc1nc2ccccn2c1C(=O)N=Nc1c(O)[nH]c2ccccc12	2.04%	–	–
COc1cccc(C(=O)NC(c2ccccc2)C2CCCC2)c1 (configuration not stated)	-0.637%	651 nM [rising, partial curve, poor fit]	103 nM [rising, full curve, poor fit]
O=C(CN1C(=O)NC2(CCCC2)C1=O)NNC(=O)c1ccc(Cl)cc1	3.55%	461 nM [rising, partial curve]	–
C=C(C)CN1CCN(c2c(CCC#N)c(C)c(C#N)c3nc4ccccc4n23)CC1	127%	259 nM [rising, full curve]	291 nM [rising, full curve]
O=C(N1CCOCC1)N1CCC(n2nnc3ccccc32)CC1	4.91%	6510 nM [rising, single point]	–
O=C(Cn1ncc2c3ccccc3n(Cc3ccccc3)c2c1=O)N1CCN(c2ncccn2)CC1	23.7%	1160 nM [rising, full curve]	517 nM [rising, full curve, poor fit]
Cc1ccc(S(=O)(=O)CCC(=O)OCc2ccccc2)cc1	-2.15%	–	517 nM [falling, single point]
CC(OC(=O)c1ccc(Br)o1)C(=O)Nc1ccc2c(c1)OCCO2 (configuration not stated)	17.8%	23100 nM [rising, single point]	–
Cc1ccc(Cn2c(NCCCn3ccnc3)nc3c2c(=O)n(C)c(=O)n3C)cc1	–	–	164 nM [rising, full curve]
CCOc1ccc(CC(=O)Nc2sc(Cc3ccccc3)c(C)c2C(N)=O)cc1OCC	-22.1%	10300 nM [falling, partial curve, poor fit]	–
Cc1ccc(C)c(C(=O)Nc2c(C(N)=O)oc3ccccc23)c1	–	3260 nM [rising, partial curve]	3660 nM [rising, partial curve]
CCOc1ccc(C2CC(=O)NC3=C2C(=O)CCC3)cc1 (configuration not stated)	15.9%	5.8 nM [falling, full curve, poor fit]	–
Cc1cc(OCC(O)CN)ccc1Cl (configuration not stated)	-31.1%	5800 nM [falling, full curve]	29100 nM [falling, single point]
COC(=O)c1ccc(=O)n(Cc2ccc3c(c2)OCO3)c1	3.91%	820 nM [rising, full curve, poor fit]	–
C1CCN(CCCNC2C3CC4CC(C3)CC2C4)C1 (configuration not stated)	-6.52%	–	116 nM [rising, full curve, poor fit]
Cc1oc(-c2ccc(Cl)cc2)[n+]([O-])c1C	-3.37%	6510 nM [rising, single point]	–

Entries of single compounds, looked up by structure.
`CCSC1=NCCN1S(=O)(=O)c1ccc2ccccc2c1` as listed: cell number change: -0.246%; AC50 [2]: 6510 nM [falling, single point]
`Cc1cc(-c2ccc(C)c(S(=O)(=O)NCC3CCN(Cc4ccc(F)cc4)CC3)c2)on1` as listed: cell number change: 15.9%; AC50 [1]: 366 nM [rising, partial curve, poor fit]

Reference: PubChem BioAssay AID2685 (National Center for Advancing Translational Sciences (NCATS), 2010)
